Earlier results as cited in patent US6458347B1, “Drug complex” (Asahi Kasei Kabushiki Kaisha, priority 1996, dated 2002).

Details: reported, Nature, 365, 464-466 (1993); cited from earlier work

SMILES: CC(=O)O[C@H]1C(=O)[C@@]2(C)[C@H]([C@H](OC(=O)c3ccccc3)[C@]3(O)C[C@H](OC(=O)[C@H](O)[C@@H](NC(=O)c4ccccc4)c4ccccc4)C(C)=C1C3(C)C)[C@]1(OC(C)=O)CO[C@@H]1C[C@@H]2O [paclitaxel]
- water-solubility: less than 0.004 mg/ml
